Experimental data reported in the supplement of paper PMC8426693.
Some of the results follow.

Experiments:
Test in all cases: NMR binding call after quantification (hit when 2 of 3 NMR criteria are met) (binary (1 = binding, 0 = not binding)); higher = binding
Conditions in all cases: RNA concentration 10 µM; fragment concentration 200 µM; 293 K
[1] = test system: SARS-CoV-2 3'-UTR RNA
[2] = test system: SARS-CoV-2 3_SL1 RNA
[3] = test system: SARS-CoV-2 3_SL1+2 RNA
[4] = test system: SARS-CoV-2 3_SL2 RNA
[5] = test system: SARS-CoV-2 3_SL3base RNA
[6] = test system: SARS-CoV-2 3_s2m RNA
[7] = test system: SARS-CoV-2 5'-UTR RNA
[8] = test system: SARS-CoV-2 5_SL1 RNA
[9] = test system: SARS-CoV-2 5_SL1234 RNA
[10] = test system: SARS-CoV-2 5_SL2+3 RNA
[11] = test system: SARS-CoV-2 5_SL4 RNA
[12] = test system: SARS-CoV-2 5_SL5 RNA
[13] = test system: SARS-CoV-2 5_SL5a RNA
[14] = test system: SARS-CoV-2 5_SL5b+c RNA
[15] = test system: SARS-CoV-2 5_SL5stem RNA
[16] = test system: SARS-CoV-2 5_SL6 RNA

Measured: NMR binding call

CN1CCN(S(=O)(=O)N(C)C)CC1
0: all assays above

CC(C(N)=O)N1CCN(S(C)(=O)=O)CC1 (stereo unspecified)
0: all assays above

NNC(=O)c1ccc(OCc2ccccc2)cc1
0: all assays above

N#CCC(=O)NC1CCCCC1
0: all assays above

CCNC(=O)CN1CC(C)OCC1C (stereo unspecified)
0: all assays above

COc1ccc(C)cc1NC(=O)Nn1cnnc1
0: all assays above

COc1cccc2[nH]ccc12
0: all assays above

CC(CS(N)(=O)=O)c1ccccc1 (stereo unspecified)
0: all assays above

O=C(C1CC1)N1CCN(c2ccc(F)cc2)CC1
0: all assays above

CC(O)CNCc1c(Cl)cccc1Cl (stereo unspecified)
0: all assays above

Cc1ccc(CN2CCS(=O)(=O)CC2)cc1
0: all assays above

CC(Cc1ccc(Br)cc1)C(N)=O (stereo unspecified)
0: all assays above

CC(C)(C)N1CC(O)C1
0: all assays above

CC(C)(C)C1CCN(C(=O)c2ccccc2)CC1
0: all assays above

Cc1noc(C)c1C(=O)NCCC1=CCCCC1
0: all assays above

O=C(NCC1CCCO1)N1CCOCC1 (stereo unspecified)
0: all assays above

2 compounds picked at random from the list so far:
Cc1noc(C)c1C(=O)NCCC1=CCCCC1
0: all assays above

CC(C)(C)C1CCN(C(=O)c2ccccc2)CC1
0: all assays above

Remaining list, next part.

CCOC(=O)c1cc(-c2ccc(C)cc2)no1
1: [1]
0: all other assays above

CC(=O)NCc1ccc(S(N)(=O)=O)cc1
0: all assays above

Cc1csc(NC(=O)C2CCOCC2)n1
0: all assays above

CC1CN(C(=O)c2cnccn2)CCO1 (stereo unspecified)
0: all assays above

CNCc1cccc(OC)n1
0: all assays above

CC(C)CC(=O)NCc1ccc2c(c1)OCO2
0: all assays above

Oc1ncc(NCCc2ccccc2)c(O)n1
0: all assays above

CC1CCNC(C(N)=O)C1 (stereo unspecified)
0: all assays above

O=C(COc1ccccc1)N1CCCC1
0: all assays above

c1ccc2sc(N3CCOCC3)nc2c1
0: all assays above

CC(=O)NCC1CNCCO1 (stereo unspecified)
0: all assays above

CN(C(=O)C1CC1(C)C)c1cccnc1 (stereo unspecified)
0: all assays above

Nc1ccc(S(=O)(=O)Nc2ccccc2)cc1
0: all assays above

CC1CCCC1NCCO (stereo unspecified)
0: all assays above

Cc1ccc(NC(=O)c2ccco2)cc1O
0: all assays above

CC1(C)CCCN1CCN
0: all assays above

Cc1nsc(N2CCOC(C)C2C)n1 (stereo unspecified)
0: all assays above

CN(C)S(=O)(=O)c1cn[nH]c1
0: all assays above

c1ccc(Nc2nncs2)cc1
0: all assays above

NC(=O)c1c[nH]c(C2CC2)n1
0: all assays above
